The test has as its target T1, human SAV1 (human) (UniProt Q9H4B6).
T1 sequence: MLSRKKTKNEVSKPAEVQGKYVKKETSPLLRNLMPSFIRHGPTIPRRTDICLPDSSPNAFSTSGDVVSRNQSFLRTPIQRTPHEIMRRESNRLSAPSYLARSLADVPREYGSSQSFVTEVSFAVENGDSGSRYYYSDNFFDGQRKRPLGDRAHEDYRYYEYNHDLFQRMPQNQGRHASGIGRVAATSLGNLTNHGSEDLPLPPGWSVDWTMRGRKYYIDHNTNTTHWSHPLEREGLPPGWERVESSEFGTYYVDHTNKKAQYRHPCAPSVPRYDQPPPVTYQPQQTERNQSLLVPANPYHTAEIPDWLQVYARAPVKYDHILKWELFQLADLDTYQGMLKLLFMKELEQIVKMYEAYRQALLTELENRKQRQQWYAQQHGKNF
The test is described as follows: pull-down; HEK293T cells transfected with the indicated constructs and subjected to the pulldown assay; beads, tags and buffers not told in the text shown.

No constants are given. Whether binding was seen depends on the method and setting. In cells and extracts the contact can be indirect.

Take Acanthamoeba castellanii Hippo (enzyme): the binding result is on record as “no binding”.

(Values after article PMC7035326.)
